Measurements reported in PubChem BioAssay AID1259405 (NCATS, 2018).
Aim: 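Mouse-designed siRNAs used to find CHO productivity engineering targets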 (primary screen). System: Chinese hamster CHO-K1 ovary cells with stable secreted eGFP expression. Reagent: single siRNA against mouse genes, 0.8 pmol siRNA per well (2 µl of 400 nM stock). Timing: 3 days. Read-out: 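Per-well intracellular GFP measured by laser scanning cytometry, plus viability from ATP luminescence, each relative to plate median of non-targeting control wells, in %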. Scale: GFP, % of control: higher = more GFP per well, higher productivity; viability (ATP), % of control: higher = more viable cells (more ATP). Active means: 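a knock-down is called active if GFP reaches 120% or more of non-targeting control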.
The whole screen tested about 50,000 reagents; below is a random part of them. Over the whole deposit, about 4,000 (8%) are marked active. 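Mouse siRNA library applied to hamster cells; one well for each siRNA.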 Entries without a mark were called inactive. The numbers tell different reagents against one gene apart.

| gene | siRNA no. | GFP, % of control | viability (ATP), % of control |
| --- | --- | --- | --- |
| Gmeb2 | 1 | 79.8 | 78.9 |
| Gmeb2 | 2 | 95.7 | 82.3 |
| Gmeb2 | 3 | 50.6 | 26.3 |
| Rprd1b | 1 | 88.1 | 72.8 |
| Rprd1b | 2 | 85.4 | 66.5 |
| Rprd1b | 3 | 73.8 | 66.9 |
| Or4c101 | 1 | 36.5 | 61 |
| Or4c101 | 2 | 90.6 | 55.8 |
| Or4c101 | 3 | 67.7 | 107 |
| Pax4 | 1 | 128 (active) | 107 |
| Pax4 | 2 | 83.1 | 90.7 |
| Mcoln3 | 1 | 79.8 | 90.9 |
| Mcoln3 | 2 | 89.2 | 83.8 |
| Mcoln3 | 3 | 75.7 | 78.9 |
| Insig2 | 1 | 71.2 | 79.7 |
| Insig2 | 2 | 134 (active) | 58.2 |
| Insig2 | 3 | 46.6 | 49.3 |
| Dmrt1 | 1 | 155 (active) | 133 |
| Dmrt1 | 2 | 82.4 | 98.3 |
| Dmrt1 | 3 | 52.8 | 37.1 |

Not a retest: entries from further up.
| gene | siRNA no. | GFP, % of control | viability (ATP), % of control |
| --- | --- | --- | --- |
| Rprd1b | 1 | 88.1 | 72.8 |
| Rprd1b | 2 | 85.4 | 66.5 |
| Rprd1b | 3 | 73.8 | 66.9 |
| Or4c101 | 1 | 36.5 | 61 |

More reagents:
| gene | siRNA no. | GFP, % of control | viability (ATP), % of control |
| --- | --- | --- | --- |
| Gramd2b | 1 | 118 | 67.9 |
| Gramd2b | 2 | 72.7 | 88.4 |
| Gramd2b | 3 | 69.7 | 64.9 |
| Tuba1b | 1 | 94.9 | 93.9 |
| Tuba1b | 2 | 71.4 | 54.7 |
| Platr26 | 1 | 43.3 | 91.4 |
| Platr26 | 2 | 40.2 | 65.6 |
| Platr26 | 3 | 104 | 64.7 |
| Nhej1 | 1 | 66.1 | 68.5 |
| Nhej1 | 2 | 74.3 | 109 |
| Nhej1 | 3 | 33.1 | 57 |
| Arhgef19 | 1 | 45.3 | 68.8 |
| Arhgef19 | 2 | 60.6 | 84.8 |
| Arhgef19 | 3 | 42.7 | 33.2 |
